Reference: US20150290227A1, “USE OF HAMAMELITANNIN FOR THE TREATMENT OF STAPHYLOCOCCAL INFECTIONS” (priority 2006, published 2015)
Some results were stated once for a whole list of compounds, not compound by compound.

Tested on: S. aureus cells
Experiment: S. aureus cell attachment in vitro in polystyrene plates
Format: cell-based
Method: Attached cells were stained and OD595nm was determined.
To test for the effect of hamamelitannin on bacterial attachment in vitro, S. aureus cells were incubated with 0-50 μg hamamelitannin or RIP in polystyrene plates for 3 hrs at 37° C. Adherent bacteria were stained with methylene blue and OD determined at 595 nm.

With “RIP: RNAIII-inhibiting peptide, sequence YSPWTNF, antagonist of RAP [reference compound]” the “dose inhibiting cell attachment in vitro” value was ≥ 0.4 picomoles per 1000 bacteria and the “amount most effective in reducing cell attachment” value (2×10^7 bacteria, 3 hrs at 37° C.) was “at least 12.5 μg”.
